Assay [1] concerns the target T1, human TREM2 expressed on HEK293-H6 cells (human) (UniProt Q9NZC2).
T1 sequence: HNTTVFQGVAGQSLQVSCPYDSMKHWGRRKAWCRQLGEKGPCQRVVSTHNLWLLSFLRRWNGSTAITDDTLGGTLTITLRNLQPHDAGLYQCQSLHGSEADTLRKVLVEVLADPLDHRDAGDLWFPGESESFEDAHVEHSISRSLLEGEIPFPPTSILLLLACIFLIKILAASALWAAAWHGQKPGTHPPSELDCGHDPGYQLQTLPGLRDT
The experiment in a line: flow cytometry, dose titration on HEK 293 cells expressing human TREM2 (TREM2-expressing HEK). Background: A flow cytometer gives signals particle by particle.

Assay [2] addresses recombinant human TREM2 ECD (human) (UniProt Q9NZC2). Nature of the assay: SPR (Biacore). (In SPR one partner is held on a chip, and binding of the other changes the refractive index at the surface.)
The target of assay [3] is T1, human TREM2 expressed on HEK293-H6 cells (human). Nature of the assay: flow cytometry on HEK293-H6 cells.

The record followed here is US20220177576A1.

Substitutions are numbered along the chain they refer to. Results are given in words; binding and its absence hold for the method and conditions named. Some binding calls cover weakened binding; strength is not graded here.

B1: TREM2 Ab (antibody, human IgG1, kappa, L234A L235A, V domains shown)
VH: EVQLVESGGGLVQPGGSLRLSCAASGFTFTDFYMSWVRQAPGKGLEWVSVIRNKANAYTAGYNPSVKGRFTISRDNSKNTLYLQMNSLRAEDTAVYYCARLTYGFDYWGQGTLVTVSS
VL: DIVMTQTPLSLPVTPGEPASISCQSSKSLLHSTGKTYLNWYLQKPGQSPQLLIYWMSTRASGVPDRFSGSGSGTDFTLKISRVEAEDVGVYYCQQFLEYPFTFGQGTKVEIKR
Regarding B1, the binding entry in assay [1] is recorded as “binds”.

B2: CL0020188-2 (antibody, V domains shown)
VH: B1 VH with A24G, L45P, V48L, A57G
VL: DIVMTQTPLSLPVTPGEPASISCQSSKSLLHSNGKTYLNWYLQKPGQSPQLLIYWMSTRASGVPDRFSGSGSGTDFTLKISRVEAEDVGVYYCQQFLEYPFTFGQGTKVEIK
For B2, the binding result in assay [2] and in assay [3] was “binds” each time.

B3: CL0020188-4 (antibody, V domains shown)
VH: B1 VH with A24G, L45P, V48L, A57G
VL: B2 VL with N33T
Regarding B3, the binding result in assay [2] and in assay [3] was “binds” throughout.
